The list shows a part of the results.

Some test systems named below: KPNA4 (human); KRAS (human); KRT33B (human); KRT36 (human); KRT8 (human); Kallikrein-1 (human); Kallikrein-5 (human).
Test in all cases: protein microarray (ProtoArray v5.0), streptavidin-Alexa Fluor 647
Conditions in all cases: 3'-biotin; 20 mM Tris (pH 7.5), 5 mM MgCl2, 100 mM KCl, 0.1% Tween-20, A/T-rich and random oligonucleotide blockers; temperature not stated; high values mean tight binding

For assay [1], the system named is Kelch-like ECH-associated protein 1 (human).
Assay [2] relates to Keratinocyte growth factor (human).
Assay [3] relates to Kidney-associated antigen 1 (human).

“GGGAGGCTGAGGCAGG [G4-1 biotinylated (PQS2)]”: the binding signal in the assay with KPNA4 (human) was -0.319 z-score; in the assay on KRAS (human), -0.349 z-score; in the assay on KRT33B (human), -0.328 z-score; with KRT36 (human), -0.317 z-score; in the assay on KRT8 (human), -0.355 z-score; with Kallikrein-1 (human), -0.311 z-score. Further, the binding signal is -0.32 z-score with Kallikrein-5 (human), -0.344 z-score in assay [1], -0.336 z-score in assay [2] and -0.337 z-score in assay [3].
